Source: patent US20160237119A1 (UNIVERSITY OF TOKYO, published 2016)
No constants are given. Whether binding was seen depends on the method and setting. Some entries that bind do so weakly or less than the wild type.

Biological target: T1, c-Met-Fc chimera protein (UniProt P08581 25-932, limits assumed)
T1 construct: Captured on the SPR chip by an anti-IgG antibody; not shown: Fc part
Assay: SPR (Biacore) as in 9-1, c-Met-Fc on chip

B1: D4-3 dimeric peptide, linker BMH (peptide)
peptide: YRQFNRRTHEVWNLDCGC
modifications: BMH linker on the added C-terminal Cys; thioether macrocycle; no N-methyl groups
binding: binds
